Consider one substance from publication PMC7060640.

Amino acid sequences for entries named in this document (tags omitted).
UniProt O95180: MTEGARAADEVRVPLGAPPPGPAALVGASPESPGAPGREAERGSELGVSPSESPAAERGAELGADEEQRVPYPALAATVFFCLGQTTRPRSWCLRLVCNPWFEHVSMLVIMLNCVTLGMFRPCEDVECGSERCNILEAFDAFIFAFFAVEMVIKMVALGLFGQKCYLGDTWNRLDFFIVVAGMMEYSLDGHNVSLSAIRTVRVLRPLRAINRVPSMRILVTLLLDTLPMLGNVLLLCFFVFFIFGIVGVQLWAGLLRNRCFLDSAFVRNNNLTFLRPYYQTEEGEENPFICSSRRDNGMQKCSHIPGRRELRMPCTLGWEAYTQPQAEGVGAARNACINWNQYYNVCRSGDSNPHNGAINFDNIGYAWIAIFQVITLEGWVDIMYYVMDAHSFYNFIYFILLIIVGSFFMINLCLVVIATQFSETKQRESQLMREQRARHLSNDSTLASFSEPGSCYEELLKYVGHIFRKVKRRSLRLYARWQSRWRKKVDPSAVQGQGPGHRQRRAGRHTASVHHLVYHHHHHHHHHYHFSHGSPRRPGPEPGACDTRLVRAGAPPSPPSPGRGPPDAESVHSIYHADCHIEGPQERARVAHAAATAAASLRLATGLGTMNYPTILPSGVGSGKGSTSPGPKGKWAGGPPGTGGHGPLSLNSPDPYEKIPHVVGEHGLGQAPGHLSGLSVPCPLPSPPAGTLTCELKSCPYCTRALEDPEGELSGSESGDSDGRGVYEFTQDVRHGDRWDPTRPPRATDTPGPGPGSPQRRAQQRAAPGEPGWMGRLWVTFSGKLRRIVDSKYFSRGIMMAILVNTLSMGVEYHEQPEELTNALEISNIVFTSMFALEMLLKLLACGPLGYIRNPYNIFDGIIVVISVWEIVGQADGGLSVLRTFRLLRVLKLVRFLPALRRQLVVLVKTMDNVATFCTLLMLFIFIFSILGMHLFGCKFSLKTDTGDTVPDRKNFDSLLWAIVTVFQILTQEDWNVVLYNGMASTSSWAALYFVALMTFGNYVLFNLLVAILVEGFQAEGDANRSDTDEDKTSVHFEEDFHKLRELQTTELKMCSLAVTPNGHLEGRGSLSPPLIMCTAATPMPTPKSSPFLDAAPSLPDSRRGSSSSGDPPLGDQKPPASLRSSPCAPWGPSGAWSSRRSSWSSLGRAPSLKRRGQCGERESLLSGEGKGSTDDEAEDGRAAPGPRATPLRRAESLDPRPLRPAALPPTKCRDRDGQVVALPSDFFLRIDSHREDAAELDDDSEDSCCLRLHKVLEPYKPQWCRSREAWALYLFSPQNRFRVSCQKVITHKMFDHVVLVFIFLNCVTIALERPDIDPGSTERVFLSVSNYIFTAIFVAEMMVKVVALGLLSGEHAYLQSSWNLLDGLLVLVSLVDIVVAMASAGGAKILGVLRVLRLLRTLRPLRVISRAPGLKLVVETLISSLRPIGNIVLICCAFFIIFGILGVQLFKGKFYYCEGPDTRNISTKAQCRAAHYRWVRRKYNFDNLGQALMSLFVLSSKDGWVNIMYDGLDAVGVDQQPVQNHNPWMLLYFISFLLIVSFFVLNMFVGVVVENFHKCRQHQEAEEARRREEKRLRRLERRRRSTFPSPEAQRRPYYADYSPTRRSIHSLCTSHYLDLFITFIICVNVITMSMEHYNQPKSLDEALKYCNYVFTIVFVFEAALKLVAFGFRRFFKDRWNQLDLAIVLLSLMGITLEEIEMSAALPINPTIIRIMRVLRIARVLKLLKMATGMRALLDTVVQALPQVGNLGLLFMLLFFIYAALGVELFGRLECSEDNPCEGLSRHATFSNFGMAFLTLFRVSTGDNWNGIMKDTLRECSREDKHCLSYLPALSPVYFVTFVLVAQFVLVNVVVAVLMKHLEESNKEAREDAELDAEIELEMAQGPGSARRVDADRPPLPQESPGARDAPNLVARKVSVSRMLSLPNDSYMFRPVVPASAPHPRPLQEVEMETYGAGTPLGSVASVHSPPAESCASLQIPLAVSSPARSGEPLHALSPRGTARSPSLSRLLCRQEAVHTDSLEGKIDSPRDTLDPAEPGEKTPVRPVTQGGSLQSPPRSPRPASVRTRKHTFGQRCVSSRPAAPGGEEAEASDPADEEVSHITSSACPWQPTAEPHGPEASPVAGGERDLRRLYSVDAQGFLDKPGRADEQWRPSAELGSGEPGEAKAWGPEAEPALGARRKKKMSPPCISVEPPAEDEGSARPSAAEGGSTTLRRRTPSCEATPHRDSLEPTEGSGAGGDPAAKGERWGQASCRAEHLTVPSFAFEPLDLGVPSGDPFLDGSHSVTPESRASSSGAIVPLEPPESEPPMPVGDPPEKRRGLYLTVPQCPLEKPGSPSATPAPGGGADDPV

The assay addresses Cav3.2 T-type calcium channel (Myc-tagged and GFP-tagged copies) (human) (UniProt O95180). Description: co-IP; lysates of tsA-201 cells co-expressing Myc-tagged and GFP-tagged Cav3.2; 3 h with biotinylated mouse monoclonal anti-Myc antibody, then 45 min with streptavidin beads at 4 °C; washed with PBS/Tween-20; immunoblot with anti-GFP. For orientation: Immunoblotting shows a protein as a band on a membrane.

No constants are given. Whether binding was seen depends on the method and setting. In cells and extracts the contact can be indirect. Some binding calls cover weakened binding; strength is not graded here.

With “Cav3.2 T-type calcium channel (Myc-tagged and GFP-tagged copies) (from UniProt O95180 1-2353)”, the binding result is “binds”.
